Measured values published in paper PMC13482807.
No constants are given. Whether binding was seen depends on the method and setting. Binding seen in cells or lysates may run through a third protein. Some binding calls cover weakened binding; strength is not graded here.

By UniProt entry, the sequences of proteins in these tests, tags left out.
UniProt P23696: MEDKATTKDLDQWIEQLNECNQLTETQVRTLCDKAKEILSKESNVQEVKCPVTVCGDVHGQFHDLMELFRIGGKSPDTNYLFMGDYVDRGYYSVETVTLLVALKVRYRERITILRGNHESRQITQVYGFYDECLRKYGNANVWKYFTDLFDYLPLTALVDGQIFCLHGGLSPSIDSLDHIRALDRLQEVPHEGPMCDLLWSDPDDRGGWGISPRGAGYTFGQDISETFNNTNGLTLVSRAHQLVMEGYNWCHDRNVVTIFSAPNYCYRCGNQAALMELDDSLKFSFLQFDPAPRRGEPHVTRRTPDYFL

How the values were obtained:
[1] = target: Microtubule star (Mts), catalytic subunit of protein phosphatase 2A, wild type (Drosophila) (UniProt P23696); experiment: co-IP; S2 cells transfected with the tagged constructs; lysis in 50 mM Tris pH 7.5, 150 mM NaCl, 1% Triton X-100, 10% glycerol, 1 mM EDTA with phosphatase and protease inhibitors; FLAG-tagged proteins on anti-FLAG M2 agarose 1-2 h at 4 °C, eluted with 3x FLAG peptide; immunoblot (Figures EV3G,H, EV5C-E, 5B-D)
[2] = target: Microtubule star (Mts), catalytic subunit of protein phosphatase 2A, wild type (Drosophila) (UniProt P23696); experiment: co-IP; S2 cells transfected with the tagged constructs, with or without co-expressed Crb^intra, lysed 48 h after transfection; FLAG-tagged proteins purified on FLAG-agarose beads; immunoblot (Figure EV6)
Kibra (Kib) (Drosophila) = target: T1, Kibra (Kib) (Drosophila) (UniProt Q9VFG8); experiment: co-IP; S2 cells transfected with the tagged constructs; lysis in 50 mM Tris pH 7.5, 150 mM NaCl, 1% Triton X-100, 10% glycerol, 1 mM EDTA with phosphatase and protease inhibitors; FLAG-tagged proteins on anti-FLAG M2 agarose 1-2 h at 4 °C, eluted with 3x FLAG peptide; immunoblot (Figures EV3G,H, EV5C-E, 5B-D)
T1 sequence: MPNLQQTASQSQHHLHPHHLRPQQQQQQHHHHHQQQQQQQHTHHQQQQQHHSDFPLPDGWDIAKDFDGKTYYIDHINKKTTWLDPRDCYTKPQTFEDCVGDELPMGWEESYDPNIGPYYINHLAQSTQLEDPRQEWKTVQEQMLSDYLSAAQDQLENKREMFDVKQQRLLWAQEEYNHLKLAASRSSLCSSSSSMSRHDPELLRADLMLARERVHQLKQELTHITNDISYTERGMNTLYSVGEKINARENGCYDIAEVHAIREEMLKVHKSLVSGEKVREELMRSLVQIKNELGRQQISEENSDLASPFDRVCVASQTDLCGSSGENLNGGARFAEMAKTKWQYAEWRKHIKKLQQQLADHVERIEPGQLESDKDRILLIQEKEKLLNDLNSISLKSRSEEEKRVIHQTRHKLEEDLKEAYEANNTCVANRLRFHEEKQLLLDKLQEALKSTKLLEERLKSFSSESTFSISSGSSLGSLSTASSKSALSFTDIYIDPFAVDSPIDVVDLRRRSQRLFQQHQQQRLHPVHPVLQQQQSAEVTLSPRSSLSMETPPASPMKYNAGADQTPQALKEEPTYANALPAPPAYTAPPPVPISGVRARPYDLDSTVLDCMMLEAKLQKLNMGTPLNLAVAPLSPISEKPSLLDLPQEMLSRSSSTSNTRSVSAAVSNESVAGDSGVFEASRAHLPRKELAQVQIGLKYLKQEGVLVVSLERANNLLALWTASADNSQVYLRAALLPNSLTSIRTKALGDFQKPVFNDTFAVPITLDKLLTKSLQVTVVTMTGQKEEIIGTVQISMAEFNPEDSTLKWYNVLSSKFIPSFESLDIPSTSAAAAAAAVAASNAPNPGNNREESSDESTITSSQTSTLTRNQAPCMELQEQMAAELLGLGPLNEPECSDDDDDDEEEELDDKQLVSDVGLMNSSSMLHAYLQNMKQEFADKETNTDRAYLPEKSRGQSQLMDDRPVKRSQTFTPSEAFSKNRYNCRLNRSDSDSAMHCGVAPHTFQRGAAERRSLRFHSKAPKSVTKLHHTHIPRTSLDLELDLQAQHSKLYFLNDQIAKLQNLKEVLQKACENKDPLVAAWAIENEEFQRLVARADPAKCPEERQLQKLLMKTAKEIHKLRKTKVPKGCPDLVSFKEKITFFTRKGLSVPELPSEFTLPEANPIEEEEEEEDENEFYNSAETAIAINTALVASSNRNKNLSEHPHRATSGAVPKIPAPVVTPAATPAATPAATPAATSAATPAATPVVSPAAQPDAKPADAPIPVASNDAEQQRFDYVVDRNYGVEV

| Binder | binding [1] | also measured |
| --- | --- | --- |
| Kibra (Kib) (protein, UniProt Q9VFG8 1-1288) MPNLQQTASQSQHHLHPHHLRPQQQQQQHHHHHQQQQQQQHTHHQQQQQHHSDFPLPDGWDIAKDFDGKTYYIDHINKKTTWLDPRDCYTKPQTFEDCVGDELPMGWEESYDPNIGPYYINHLAQSTQLEDPRQEWKTVQEQMLSDYLSAAQDQLENKREMFDVKQQRLLWAQEEYNHLKLAASRSSLCSSSSSMSRHDPELLRADLMLARERVHQLKQELTHITNDISYTERGMNTLYSVGEKINARENGCYDIAEVHAIREEMLKVHKSLVSGEKVREELMRSLVQIKNELGRQQISEENSDLASPFDRVCVASQTDLCGSSGENLNGGARFAEMAKTKWQYAEWRKHIKKLQQQLADHVERIEPGQLESDKDRILLIQEKEKLLNDLNSISLKSRSEEEKRVIHQTRHKLEEDLKEAYEANNTCVANRLRFHEEKQLLLDKLQEALKSTKLLEERLKSFSSESTFSISSGSSLGSLSTASSKSALSFTDIYIDPFAVDSPIDVVDLRRRSQRLFQQHQQQRLHPVHPVLQQQQSAEVTLSPRSSLSMETPPASPMKYNAGADQTPQALKEEPTYANALPAPPAYTAPPPVPISGVRARPYDLDSTVLDCMMLEAKLQKLNMGTPLNLAVAPLSPISEKPSLLDLPQEMLSRSSSTSNTRSVSAAVSNESVAGDSGVFEASRAHLPRKELAQVQIGLKYLKQEGVLVVSLERANNLLALWTASADNSQVYLRAALLPNSLTSIRTKALGDFQKPVFNDTFAVPITLDKLLTKSLQVTVVTMTGQKEEIIGTVQISMAEFNPEDSTLKWYNVLSSKFIPSFESLDIPSTSAAAAAAAVAASNAPNPGNNREESSDESTITSSQTSTLTRNQAPCMELQEQMAAELLGLGPLNEPECSDDDDDDEEEELDDKQLVSDVGLMNSSSMLHAYLQNMKQEFADKETNTDRAYLPEKSRGQSQLMDDRPVKRSQTFTPSEAFSKNRYNCRLNRSDSDSAMHCGVAPHTFQRGAAERRSLRFHSKAPKSVTKLHHTHIPRTSLDLELDLQAQHSKLYFLNDQIAKLQNLKEVLQKACENKDPLVAAWAIENEEFQRLVARADPAKCPEERQLQKLLMKTAKEIHKLRKTKVPKGCPDLVSFKEKITFFTRKGLSVPELPSEFTLPEANPIEEEEEEEDENEFYNSAETAIAINTALVASSNRNKNLSEHPHRATSGAVPKIPAPVVTPAATPAATPAATPAATSAATPAATPVVSPAAQPDAKPADAPIPVASNDAEQQRFDYVVDRNYGVEV | binds | – |
| Expanded residues 1-468 (Ex^1-468) (domain or fragment, UniProt Q07436 1-468) MRAFCTVSAPLEVCASSAEQLSPGSRFLALRLLGQQQPKTLYFLVDAKSRVREVYTQTCLHFATQGMLDTELFGLAVLIDGEYMFADPESKLSKYGPKSWRSSHTHGLDANGRPLLELHFRVQFYIESPFMLKDETSRHNYYLQLRHNILQRDLPREQAEQALVFLAGLALQADLGDAPPGTSNSKDDSGEETSASPSNGGRGLSATTTLPKISKRANERMLRLSTYVASTSKRETIPLPPSLPPNGADYYRIEDYLPSGLHTPWARSAMRACHREHLGMATAEAELLYIQQACSLHETINAHTYRMRLAKSEQGSGSAWFVVYAKGIKILGGESTNSSSNPETTTFLWPNITKLSFERKKFEIRSGESRITLYAASDEKNKLLLTLCKDTHQWSMKLAARLKEVSKREEEEAAESQRLHASYACSRSLLLPYKSKNEQRISVISSTSSNTTSGIVSDRVHSEDELEI | – | binding [2]: binds |
| Merlin (Mer) (protein, UniProt Q24564 1-635) MSPFGSKKNRSLSVRVSTFDSELEFKLEPRASGQDLFDLVCRTIGLRESWYFGLQYVDTRSNVSWLKMEKRVRDQRVELHASNNVYVFSFYAKFFPENVSEELIQEITQHLFFLQVKQSILSMDIYCRPEASVLLASYAVHVQYGPYDYETYKDGMLAGGELLPKGVTDQYQMTPEMWEERIKTWYMDHEPMTRDEVEMEYLKIAQDLDMYGVNYFPITNKNKTKLWLGVTSVGLNIYDERDKLTPKTTFQWNEIRHVSFDDKKFTIRLVDAKVSNFIFYSQDLHINKMILDLCKGNHDLYMRRRKPDTMEIQQMKAQAKEEKQRRQIERKKFIREKKLREKAEHERYELEKSMEHLQNEMRMANDALRRSEETKELYFEKSRVNEEQMQLTECKANHFKTEMDRLRERQMKIEREKHDLEKKIRDADFYVHQLTVENDKREAETEKLRKELICAKMAEREATARLLEFLNSGRKSSTDSLLTASSVSHAANTASSMAAISTPSLITSSSTNDLETAGGAELTTHSSHYLVQGDNSSGISDDFEPKEFILTDNEMEQITNEMERNHLDYLRNSKQVQSQLQTLRSEIAPHKIEENQSNLDILSEAQIKAGENKYSTLKKLKSGSTKARVAFFEEL | no binding | – |
| Twins (Tws), PP2A B regulatory subunit (protein, UniProt P36872 1-499) MGRWGRQSPVLEPPDPQMQTTPPPPTLPPRTFMRQSSITKIGNMLNTAININGAKKPASNGEASWCFSQIKGALDDDVTDADIISCVEFNHDGELLATGDKGGRVVIFQRDPASKAANPRRGEYNVYSTFQSHEPEFDYLKSLEIEEKINKIRWLQQKNPVHFLLSTNDKTVKLWKVSERDKSFGGYNTKEENGLIRDPQNVTALRVPSVKQIPLLVEASPRRTFANAHTYHINSISVNSDQETFLSADDLRINLWHLEVVNQSYNIVDIKPTNMEELTEVITAAEFHPTECNVFVYSSSKGTIRLCDMRSAALCDRHSKQFEEPENPTNRSFFSEIISSISDVKLSNSGRYMISRDYLSIKVWDLHMETKPIETYPVHEYLRAKLCSLYENDCIFDKFECCWNGKDSSIMTGSYNNFFRVFDRNSKKDVTLEASRDIIKPKTVLKPRKVCTGGKRKKDEISVDCLDFNKKILHTAWHPEENIIAVAATNNLFIFQDKF | – | binding (Kibra (Kib) (Drosophila)): no binding |
